# About 1,800 (2.3%) of roughly 78,000 compounds were called active. The shares of active, inactive and inconclusive entries below differ from those in the screen. Cut-off read from the data, not from the text of the source: active = inhibition above about 30%; inconclusive = mostly about 10% to 28%; inactive = weaker than that.
# Chains of the proteins cited; added tags and fusions are not shown. Lines headed by an entry give the natural chain unless they say otherwise; changes in a name come on top.
# UniProt Q01638: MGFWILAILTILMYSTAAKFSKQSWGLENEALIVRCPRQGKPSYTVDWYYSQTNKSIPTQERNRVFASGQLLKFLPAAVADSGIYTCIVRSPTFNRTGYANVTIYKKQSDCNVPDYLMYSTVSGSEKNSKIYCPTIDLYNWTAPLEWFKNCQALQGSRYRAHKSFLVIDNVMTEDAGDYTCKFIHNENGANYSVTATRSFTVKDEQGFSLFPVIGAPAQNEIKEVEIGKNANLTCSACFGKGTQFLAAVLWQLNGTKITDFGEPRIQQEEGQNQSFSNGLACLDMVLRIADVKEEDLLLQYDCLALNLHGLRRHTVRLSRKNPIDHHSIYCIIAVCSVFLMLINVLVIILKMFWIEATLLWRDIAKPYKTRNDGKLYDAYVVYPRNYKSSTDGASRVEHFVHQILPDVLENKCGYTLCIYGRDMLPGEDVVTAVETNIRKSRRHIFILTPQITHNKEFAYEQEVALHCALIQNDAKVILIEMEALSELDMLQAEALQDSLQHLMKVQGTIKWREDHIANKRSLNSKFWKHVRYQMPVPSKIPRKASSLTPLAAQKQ
# Biological target: Interleukin-1 receptor-like 1 (Homo sapiens) (UniProt Q01638)
# Assay: blocks human ST2 binding to IL-33, primary screen, biochemical, AlphaLISA (AID 1259354)
# Settings: AlphaLISA ST2-Fc/biotin-IL-33 interaction, 1 h; at 17 µM, hits give high values
row,Compound,inhibition
1,CC1=C[C@@H](CNCCc2c[nH]c3ccccc23)[C@H](C(C)C)C[C@H]1Cc1nnc(-c2cncn2C)o1,inactive
2,O=C(CSc1nc2ccccc2[nH]1)Nc1cc(C(F)(F)F)ccc1Cl,inconclusive: 11%
3,CC1=C(C(=O)Nc2ccc(C)cc2C)C(c2ccc(O)cc2)n2ncnc2N1 (stereo unspecified),inactive
4,CCS(=O)(=O)c1ncc(CN(C)CC2CCCCO2)n1Cc1ccccc1 (stereo unspecified),inactive
5,O=C(Nc1cccc([N+](=O)[O-])c1)c1ccccc1F,inactive
6,c1ccc2oc(CCCCc3nc4ccccc4o3)nc2c1,inconclusive: 16%
7,Cc1cc(C)c(S(=O)(=O)N2CCN(c3nc(C)cc(N4CCCC4)n3)CC2)c(C)c1,inactive
8,CCOc1ccc(C2CC(c3ccc(Br)cc3)Nc3nc(N)nn32)cc1 (stereo unspecified),inconclusive: 12%
9,COc1ccc(C(=O)Nc2ccc(Nc3nc(C)cc(N(C)C)n3)cc2)cc1,inconclusive: 14%
10,COc1ccccc1C(=O)N/C(=C\c1ccc2c(c1)OCO2)C(=O)N1CCOCC1,inconclusive: 16%
11,COc1cccc(C2CC(=O)C3=C(C2)Nc2ccccc2NC3c2cccs2)c1 (stereo unspecified),inconclusive: 20%
12,O=C(NCc1nccs1)c1nn(CC2CC2)c2c1CN(C(=O)c1cn3ccccc3n1)CC2,inactive
13,Cc1cc(C)c(C2C(C#N)=C(N)OC3=C2C(=O)CC(C)(C)C3)c(C)c1 (stereo unspecified),inactive
14,O=C(Nc1ccc(Cl)c(C(F)(F)F)c1)C1CCN(C(=O)c2ccccc2)CC1,inactive
15,Cc1cccc(C2=N/C(=C\c3cc(Br)ccc3F)C(=O)O2)c1,inconclusive: 10%
16,CN(Cc1cc2n(n1)CCNC2)CC1(c2ccccc2)CC1(C)C (stereo unspecified),inconclusive: 15%
17,CSc1sc(SC)c(C(=O)O)c1C(=O)O,inactive
18,O=C(NC1CC1)c1ccc2c(=O)n(CCc3ccccc3)c(=O)[nH]c2c1,inactive
19,Clc1ccc2c(c1)c1c3c(nccn32)CCC1,inconclusive: 23%
20,CC(=O)Nc1cnn(-c2ccccc2)c(=O)c1Cl,inconclusive: 12%
21,O=C(Nc1ccccc1)c1cc(S(=O)(=O)Nc2cccc([N+](=O)[O-])c2)cs1,inconclusive: 26%
22,N#CC1=C(N)OC(c2ccccc2)=C(n2cncn2)C1c1ccc(Cl)cc1Cl (stereo unspecified),inconclusive: 18%
23,O=C(NCc1ccccc1)N1Cc2[nH]cnc2C[C@H]1c1nc(-c2ccc3c(c2)OCO3)no1,inactive
24,CCNc1nc(C)c(C(=O)NC(C)c2cn3ccsc3n2)s1 (stereo unspecified),inconclusive: 13%
25,NC(=O)c1ccccc1NC(=O)c1cc(-c2ccc(Br)s2)nc2ccccc12,inconclusive: 17%
26,Cc1ccc(C(=O)NCCSC(C)(C)C)cc1[N+](=O)[O-],inconclusive: 26%

# Reformatted: 2 of the compounds above.
row | Compound | inhibition
3 | CC1=C(C(=O)Nc2ccc(C)cc2C)C(c2ccc(O)cc2)n2ncnc2N1 (stereo unspecified) | inactive
21 | O=C(Nc1ccccc1)c1cc(S(=O)(=O)Nc2cccc([N+](=O)[O-])c2)cs1 | inconclusive: 26%

# Reference: PubChem BioAssay AID1259354 (Paczesny and Yang Labs, IUPUI and University of Michigan, 2018)
